Data: article PMC8602292, “Acyl carrier protein promotes MukBEF action in Escherichia coli chromosome organization-segregation” (Nature Communications, 2021)
These are yes or no findings as the source states them, for the method shown. Some results given as binding are weak or reduced against the parent protein; the word gives no strength. Sequences can lack the tags named with a protein.

Biological target: T1, MukB (wild type, MukB-His) (Escherichia coli, UniProt P22523 1-1486)
T1 construct: MukB, the SMC protein of Escherichia coli MukBEF; wild type; The end of the tag is read from the printed name 'MukB-His'; The same construct was used with co-purified AcpP or depleted of AcpP by an extended salt gradient on heparin; also called WT MukB; AcpP-depleted MukB; source: E. coli C3013I (NEB), pET vector, purified (TALON, HiTrap Heparin, Superdex 200); not shown: His tag, C-terminal, kept
T1 sequence (looked up): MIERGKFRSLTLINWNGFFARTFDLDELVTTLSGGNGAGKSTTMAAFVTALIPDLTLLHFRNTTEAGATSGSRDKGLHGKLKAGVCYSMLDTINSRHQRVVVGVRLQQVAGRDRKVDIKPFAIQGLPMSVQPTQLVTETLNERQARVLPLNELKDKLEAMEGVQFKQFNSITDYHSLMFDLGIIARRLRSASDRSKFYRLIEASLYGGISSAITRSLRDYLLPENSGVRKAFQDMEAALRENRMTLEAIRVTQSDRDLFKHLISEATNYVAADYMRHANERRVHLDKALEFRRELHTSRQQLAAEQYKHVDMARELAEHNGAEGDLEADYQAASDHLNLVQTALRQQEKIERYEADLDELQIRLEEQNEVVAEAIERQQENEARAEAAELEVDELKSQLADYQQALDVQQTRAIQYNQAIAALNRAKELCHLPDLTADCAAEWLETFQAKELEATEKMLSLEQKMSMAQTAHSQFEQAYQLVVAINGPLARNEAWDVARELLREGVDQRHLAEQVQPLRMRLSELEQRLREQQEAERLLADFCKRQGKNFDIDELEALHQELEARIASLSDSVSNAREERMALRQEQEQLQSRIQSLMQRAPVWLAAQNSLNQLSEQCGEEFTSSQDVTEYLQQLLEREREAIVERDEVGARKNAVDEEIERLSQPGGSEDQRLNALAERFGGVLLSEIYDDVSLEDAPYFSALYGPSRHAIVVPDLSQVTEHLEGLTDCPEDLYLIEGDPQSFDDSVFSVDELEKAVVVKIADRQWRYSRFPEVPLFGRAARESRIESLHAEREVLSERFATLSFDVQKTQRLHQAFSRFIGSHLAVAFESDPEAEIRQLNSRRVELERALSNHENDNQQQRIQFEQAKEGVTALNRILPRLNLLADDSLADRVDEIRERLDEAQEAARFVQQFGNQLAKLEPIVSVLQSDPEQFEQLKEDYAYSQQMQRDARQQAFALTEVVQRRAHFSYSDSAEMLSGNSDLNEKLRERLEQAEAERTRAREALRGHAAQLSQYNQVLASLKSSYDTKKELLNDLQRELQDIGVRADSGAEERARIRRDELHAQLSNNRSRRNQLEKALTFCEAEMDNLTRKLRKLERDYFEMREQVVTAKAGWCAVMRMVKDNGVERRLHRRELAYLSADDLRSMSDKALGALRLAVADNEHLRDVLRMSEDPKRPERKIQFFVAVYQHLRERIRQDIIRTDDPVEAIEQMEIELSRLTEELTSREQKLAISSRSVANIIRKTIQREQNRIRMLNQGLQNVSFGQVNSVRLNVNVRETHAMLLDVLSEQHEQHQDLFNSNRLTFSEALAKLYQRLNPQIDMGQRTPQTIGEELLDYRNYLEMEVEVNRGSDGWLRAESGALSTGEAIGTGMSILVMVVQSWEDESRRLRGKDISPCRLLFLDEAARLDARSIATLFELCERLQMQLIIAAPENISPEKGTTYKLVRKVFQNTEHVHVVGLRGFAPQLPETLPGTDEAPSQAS
Experiment: co-purification (SDS-PAGE of the purified His-tagged protein); native AcpP (or MukF) of the E. coli host carried along with MukB-His or its variants through TALON, heparin and Superdex 200; read by SDS-PAGE

B1: MukF (His-MukF) (natural protein, Escherichia coli, UniProt P60293 1-440, looked up)
chain: MSEFSQTVPELVAWARKNDFSISLPVDRLSFLLAVATLNGERLDGEMSEGELVDAFRHVSDAFEQTSETIGVRANNAINDMVRQRLLNRFTSEQAEGNAIYRLTPLGIGITDYYIRQREFSTLRLSMQLSIVAGELKRAADAAEEGGDEFHWHRNVYAPLKYSVAEIFDSIDLTQRLMDEQQQQVKDDIAQLLNKDWRAAISSCELLLSETSGTLRELQDTLEAAGDKLQANLLRIQDATMTHDDLHFVDRLVFDLQSKLDRIISWGQQSIDLWIGYDRHVHKFIRTAIDMDKNRVFAQRLRQSVQTYFDEPWALTYANADRLLDMRDEEMALRDEEVTGELPEDLEYEEFNEIREQLAAIIEEQLAVYKTRQVPLDLGLVVREYLSQYPRARHFDVARIVIDQAVRLGVAQADFTGLPAKWQPINDYGAKVQAHVIDKY
notes: MukF, the kleisin of Escherichia coli MukBEF; The end of the tag is read from the printed name 'His-MukF'; also called kleisin MukF; source: E. coli C3013I (NEB), pET vector, purified (TALON, HiTrap DEAE FF, Superdex 200)
In the case of B1, the binding is reported as “binds”.
